From paper PMC5548489
Results are given in words; binding and its absence hold for the method and conditions named. Binding seen in cells or lysates may run through a third protein. These calls come from enrichment with a bait or labelling near it, and not all partners need be listed.

Chains of the proteins cited; added tags and fusions are not shown.
UniProt P03372: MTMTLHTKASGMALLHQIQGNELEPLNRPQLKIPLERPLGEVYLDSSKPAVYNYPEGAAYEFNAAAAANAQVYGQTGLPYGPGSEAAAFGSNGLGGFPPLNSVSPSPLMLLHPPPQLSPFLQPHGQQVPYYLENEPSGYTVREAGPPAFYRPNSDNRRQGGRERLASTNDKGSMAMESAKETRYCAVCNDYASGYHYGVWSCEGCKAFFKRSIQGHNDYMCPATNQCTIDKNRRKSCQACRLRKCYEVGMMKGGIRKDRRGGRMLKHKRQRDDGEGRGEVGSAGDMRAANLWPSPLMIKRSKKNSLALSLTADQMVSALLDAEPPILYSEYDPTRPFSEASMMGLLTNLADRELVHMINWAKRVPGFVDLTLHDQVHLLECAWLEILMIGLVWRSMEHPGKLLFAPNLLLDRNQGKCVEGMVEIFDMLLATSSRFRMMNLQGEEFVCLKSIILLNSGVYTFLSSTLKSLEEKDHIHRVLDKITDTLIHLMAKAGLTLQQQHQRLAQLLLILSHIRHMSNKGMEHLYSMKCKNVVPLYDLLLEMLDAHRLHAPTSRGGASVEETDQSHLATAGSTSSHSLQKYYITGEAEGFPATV

Target: estrogen receptor alpha (ER) (human (endogenous in MCF-7 and ZR-75)) (UniProt P03372)
Experiment: affinity purification with mass spectrometry; anti-ER antibody (Santa Cruz sc-8002) on Dynabeads Protein G, 1.5 mg lysate of MCF-7 or ZR-75 cells overnight at 4°C; cells starved, vehicle or 10 µM ERX-11 for 2 hr, then 10 nM E2 for 2 hr; the named proteins are ER binders whose co-precipitation was disrupted by ERX-11

binding | Binder
binds | FAM83H (protein, UniProt Q6ZRV2 1-1179) MARRSQSSSQGDNPLAPGYLPPHYKEYYRLAVDALAEGGSEAYSRFLATEGAPDFLCPEELEHVSRHLRPPQYVTREPPEGSLLDVDMDGSSGTYWPVNSDQAVPELDLGWPLTFGFQGTEVTTLVQPPPPDSPSIKDEARRMIRSAQQVVAVVMDMFTDVDLLSEVLEAAARRVPVYILLDEMNAQHFLDMADKCRVNLQHVDFLRVRTVAGPTYYCRTGKSFKGHVKEKFLLVDCAVVMSGSYSFMWSFEKIHRSLAHVFQGELVSSFDEEFRILFAQSEPLVPSAAALARMDAYALAPYAGAGPLVGVPGVGAPTPFSFPKRAHLLFPPPREEGLGFPSFLDPDRHFLSAFRREEPPRMPGGALEPHAGLRPLSRRLEAEAGPAGELAGARGFFQARHLEMDAFKRHSFATEGAGAVENFAAARQVSRQTFLSHGDDFRFQTSHFHRDQLYQQQYQWDPQLTPARPQGLFEKLRGGRAGFADPDDFTLGAGPRFPELGPDGHQRLDYVPSSASREVRHGSDPAFAPGPRGLEPSGAPRPNLTQRFPCQAAARPGPDPAPEAEPERRGGPEGRAGLRRWRLASYLSGCHGEDGGDDGLPAPMEAEAYEDDVLAPGGRAPAGDLLPSAFRVPAAFPTKVPVPGPGSGGNGPEREGPEEPGLAKQDSFRSRLNPLVQRSSRLRSSLIFSTSQAEGAAGAAAATEKVQLLHKEQTVSETLGPGGEAVRSAASTKVAELLEKYKGPARDPGGGAGAITVASHSKAVVSQAWREEVAAPGAVGGERRSLESCLLDLRDSFAQQLHQEAERQPGAASLTAAQLLDTLGRSGSDRLPSRFLSAQSHSTSPQGLDSPLPLEGSGAHQVLHNESKGSPTSAYPERKGSPTPGFSTRRGSPTTGFIEQKGSPTSAYPERRGSPVPPVPERRSSPVPPVPERRGSLTLTISGESPKAGPAEEGPSGPMEVLRKGSLRLRQLLSPKGERRMEDEGGFPVPQENGQPESPRRLSLGQGDSTEAATEERGPRARLSSATANALYSSNLRDDTKAILEQISAHGQKHRAVPAPSPGPTHNSPELGRPPAAGVLAPDMSDKDKCSAIFRSDSLGTQGRLSRTLPASAEERDRLLRRMESMRKEKRVYSRFEVFCKKEEASSPGAGEGPAEEGTRDSKVGKFVPKILGTFKSKK
binds | Q9NVI7-2 (protein, UniProt Q9NVI7-2 1-586) MSWLFGINKGPKGEGAGPPPPLPPAQPGAEGGGDRGLGDRPAPKDKWSNFDPTGLERAAKAARELEHSRYAKDALNLAQMQEQTLQLEQQSKLKEYEAAVEQLKSEQIRAQAEERRKTLSEETRQHQARAQYQDKLARQRYEDQLKQQQLLNEENLRKQEESVQKQEAMRRATVEREMELRHKNEMLRVEAEARARAKAERENADIIREQIRLKAAEHRQTVLESIRTAGTLFGEGFRAFVTDWDKVTATVAGLTLLAVGVYSAKNATLVAGRFIEARLGKPSLVRETSRITVLEALRHPIQVSRRLLSRPQDALEGVVLSPSLEARVRDIAIATRNTKKNRSLYRNILMYGPPGTGKTLFAKKLALHSGMDYAIMTGGDVAPMGREGVTAMHKLFDWANTSRRGLLLFVDEADAFLRKRATEKISEDLRATLNAFLYRTGQHSNKFMLVLASNQPEQFDWAINDRINEMVHFDLPGQEERERLVRMYFDKYVLKPATEGKQRLKLAQFDYGRKCSEVARLTEGMSGREIAQLAVSWQATAYASEDGVLTEAMMDTRVQDAVQQHQQKMCWLKAEGPGRGDEPSPS
binds | UACA (protein, UniProt Q9BZF9 1-1416) MKSLKSRLRRQDVPGPASSGAAAASAHAADWNKYDDRLMKAAERGDVEKVTSILAKKGVNPGKLDVEGRSVFHVVTSKGNLECLNAILIHGVDITTSDTAGRNALHLAAKYGHALCLQKLLQYNCPTEHADLQGRTALHDAAMADCPSSIQLLCDHGASVNAKDVDGRTPLVLATQMSRPTICQLLIDRGADVNSRDKQNRTALMLGCEYGCRDAVEVLIKNGADISLLDALGHDSSYYARIGDNLDILTLLKTASENTNKGRELWKKGPSLQQRNLTHMQDEVNVKSHQREHQNIQDLEIENEDLKERLRKIQQEQRILLDKVNGLQLQLNEEVMVADDLESEREKLKSLLAAKEKQHEESLRTIEALKNRFKYFESDHLGSGSHFSNRKEDMLLKQGQMYMADSQCTSPGIPAHMQSRSMLRPLELSLPSQTSYSENEILKKELEAMRTFCESAKQDRLKLQNELAHKVAECKALALECERVKEDSDEQIKQLEDALKDVQKRMYESEGKVKQMQTHFLALKEHLTSEAASGNHRLTEELKDQLKDLKVKYEGASAEVGKLRNQIKQNEMIVEEFKRDEGKLIEENKRLQKELSMCEMEREKKGRKVTEMEGQAKELSAKLALSIPAEKFENMKSSLSNEVNEKAKKLVEMEREHEKSLSEIRQLKRELENVKAKLAQHVKPEEHEQVKSRLEQKSGELGKKITELTLKNQTLQKEIEKVYLDNKLLKEQAHNLTIEMKNHYVPLKVSEDMKKSHDAIIDDLNRKLLDVTQKYTEKKLEMEKLLLENDSLSKDVSRLETVFVPPEKHEKEIIALKSNIVELKKQLSELKKKCGEDQEKIHALTSENTNLKKMMSNQYVPVKTHEEVKMTLNDTLAKTNRELLDVKKKFEDINQEFVKIKDKNEILKRNLENTQNQIKAEYISLAEHEAKMSSLSQSMRKVQDSNAEILANYRKGQEEIVTLHAEIKAQKKELDTIQECIKVKYAPIVSFEECERKFKATEKELKDQLSEQTQKYSVSEEEVKKNKQENDKLKKEIFTLQKDLRDKTVLIEKSHEMERALSRKTDELNKQLKDLSQKYTEVKNVKEKLVEENAKQTSEILAVQNLLQKQHVPLEQVEALKKSLNGTIENLKEELKSMQRCYEKEQQTVTKLHQLLENQKNSSVPLAEHLQIKEAFEKEVGIIKASLREKEEESQNKMEEVSKLQSEVQNTKQALKKLETREVVDLSKYKATKSDLETQISSLNEKLANLNRKYEEVCEEVLHAKKKEISAKDEKELLHFSIEQEIKDQKERCDKSLTTITELQRRIQESAKQIEAKDNKITELLNDVERLKQALNGLSQLTYTSGNPTKRQSQLIDTLQHQVKSLEQQLADADRQHQEVIAIYRTHLLSAAQGHMDEDVQEALLQIIQMRQGLVC
binds | CD2BP2 (protein, UniProt O95400 1-341) MPKRKVTFQGVGDEEDEDEIIVPKKKLVDPVAGSGGPGSRFKGKHSLDSDEEEDDDDGGSSKYDILASEDVEGQEAATLPSEGGVRITPFNLQEEMEEGHFDADGNYFLNRDAQIRDSWLDNIDWVKIRERPPGQRQASDSEEEDSLGQTSMSAQALLEGLLELLLPRETVAGALRRLGARGGGKGRKGPGQPSSPQRLDRLSGLADQMVARGNLGVYQETRERLAMRLKGLGCQTLGPHNPTPPPSLDMFAEELAEEELETPTPTQRGEAESRGDGLVDVMWEYKWENTGDAELYGPFTSAQMQTWVSEGYFPDGVYCRKLDPPGGQFYNSKRIDFDLYT
binds | CHERP (protein, UniProt Q8IWX8 1-916) MEMPLPPDDQELRNVIDKLAQFVARNGPEFEKMTMEKQKDNPKFSFLFGGEFYSYYKCKLALEQQQLICKQQTPELEPAATMPPLPQPPLAPAAPIPPAQGAPSMDELIQQSQWNLQQQEQHLLALRQEQVTAAVAHAVEQQMQKLLEETQLDMNEFDNLLQPIIDTCTKDAISAGKNWMFSNAKSPPHCELMAGHLRNRITADGAHFELRLHLIYLINDVLHHCQRKQARELLAALQKVVVPIYCTSFLAVEEDKQQKIARLLQLWEKNGYFDDSIIQQLQSPALGLGQYQATLINEYSSVVQPVQLAFQQQIQTLKTQHEEFVTSLAQQQQQQQQQQQQLQMPQMEAEVKATPPPPAPPPAPAPAPAIPPTTQPDDSKPPIQMPGSSEYEAPGGVQDPAAAGPRGPGPHDQIPPNKPPWFDQPHPVAPWGQQQPPEQPPYPHHQGGPPHCPPWNNSHEGMWGEQRGDPGWNGQRDAPWNNQPDAAWNSQFEGPWNSQHEQPPWGGGQREPPFRMQRPPHFRGPFPPHQQHPQFNQPPHPHNFNRFPPRFMQDDFPPRHPFERPPYPHRFDYPQGDFPAEMGPPHHHPGHRMPHPGINEHPPWAGPQHPDFGPPPHGFNGQPPHMRRQGPPHINHDDPSLVPNVPYFDLPAGLMAPLVKLEDHEYKPLDPKDIRLPPPMPPSERLLAAVEAFYSPPSHDRPRNSEGWEQNGLYEFFRAKMRARRRKGQEKRNSGPSRSRSRSKSRGRSSSRSNSRSSKSSGSYSRSRSRSCSRSYSRSRSRSRSRSRSSRSRSRSQSRSRSKSYSPGRRRRSRSRSPTPPSSAGLGSNSAPPIPDSRLGEENKGHQMLVKMGWSGSGGLGAKEQGIQDPIKGGDVRDKWDQYKGVGVALDDPYENYRRNKSYSFIARMKARDECK
binds | CPSF1 (protein, UniProt Q10570 1-1443) MYAVYKQAHPPTGLEFSMYCNFFNNSERNLVVAGTSQLYVYRLNRDAEALTKNDRSTEGKAHREKLELAASFSFFGNVMSMASVQLAGAKRDALLLSFKDAKLSVVEYDPGTHDLKTLSLHYFEEPELRDGFVQNVHTPRVRVDPDGRCAAMLVYGTRLVVLPFRRESLAEEHEGLVGEGQRSSFLPSYIIDVRALDEKLLNIIDLQFLHGYYEPTLLILFEPNQTWPGRVAVRQDTCSIVAISLNITQKVHPVIWSLTSLPFDCTQALAVPKPIGGVVVFAVNSLLYLNQSVPPYGVALNSLTTGTTAFPLRTQEGVRITLDCAQATFISYDKMVISLKGGEIYVLTLITDGMRSVRAFHFDKAAASVLTTSMVTMEPGYLFLGSRLGNSLLLKYTEKLQEPPASAVREAADKEEPPSKKKRVDATAGWSAAGKSVPQDEVDEIEVYGSEAQSGTQLATYSFEVCDSILNIGPCANAAVGEPAFLSEEFQNSPEPDLEIVVCSGHGKNGALSVLQKSIRPQVVTTFELPGCYDMWTVIAPVRKEEEDNPKGEGTEQEPSTTPEADDDGRRHGFLILSREDSTMILQTGQEIMELDTSGFATQGPTVFAGNIGDNRYIVQVSPLGIRLLEGVNQLHFIPVDLGAPIVQCAVADPYVVIMSAEGHVTMFLLKSDSYGGRHHRLALHKPPLHHQSKVITLCLYRDLSGMFTTESRLGGARDELGGRSGPEAEGLGSETSPTVDDEEEMLYGDSGSLFSPSKEEARRSSQPPADRDPAPFRAEPTHWCLLVRENGTMEIYQLPDWRLVFLVKNFPVGQRVLVDSSFGQPTTQGEARREEATRQGELPLVKEVLLVALGSRQSRPYLLVHVDQELLIYEAFPHDSQLGQGNLKVRFKKVPHNINFREKKPKPSKKKAEGGGAEEGAGARGRVARFRYFEDIYGYSGVFICGPSPHWLLVTGRGALRLHPMAIDGPVDSFAPFHNVNCPRGFLYFNRQGELRISVLPAYLSYDAPWPVRKIPLRCTAHYVAYHVESKVYAVATSTNTPCARIPRMTGEEKEFETIERDERYIHPQQEAFSIQLISPVSWEAIPNARIELQEWEHVTCMKTVSLRSEETVSGLKGYVAAGTCLMQGEEVTCRGRILIMDVIEVVPEPGQPLTKNKFKVLYEKEQKGPVTALCHCNGHLVSAIGQKIFLWSLRASELTGMAFIDTQLYIHQMISVKNFILAADVMKSISLLRYQEESKTLSLVSRDAKPLEVYSVDFMVDNAQLGFLVSDRDRNLMVYMYLPEAKESFGGMRLLRRADFHVGAHVNTFWRTPCRGATEGLSKKSVVWENKHITWFATLDGGIGLLLPMQEKTYRRLLMLQNALTTMLPHHAGLNPRAFRMLHVDRRTLQNAVRNVLDGELLNRYLYLSTMERSELAKKIGTTPDIILDDLLETDRVTAHF
